The other results are listed elsewhere or left out.
Compound: Cc1cc(ccc1-c1ccccc1)C(=O)N1CCCN(CC1)C(=O)CCl [compound 10]
Test: probe-labelled cysteine peptide fold change vs DMSO (competition) (log2 fold change); higher = less target engagement (more negative = stronger competition)
Conditions: THP-1, incubation time: 4 h
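Also: competitive profiling in live THP-1 cells: cysteine peptides tagged with an iodoacetamide desthiobiotin (IA-DTB) probe, intensity after compound treatment relative to DMSO-treated cells.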

Sequences of proteins named here, by UniProt entry; tags and fusion partners are left off. A change or cut given only in a name is not applied to a line headed by its entry.
UniProt Q15052: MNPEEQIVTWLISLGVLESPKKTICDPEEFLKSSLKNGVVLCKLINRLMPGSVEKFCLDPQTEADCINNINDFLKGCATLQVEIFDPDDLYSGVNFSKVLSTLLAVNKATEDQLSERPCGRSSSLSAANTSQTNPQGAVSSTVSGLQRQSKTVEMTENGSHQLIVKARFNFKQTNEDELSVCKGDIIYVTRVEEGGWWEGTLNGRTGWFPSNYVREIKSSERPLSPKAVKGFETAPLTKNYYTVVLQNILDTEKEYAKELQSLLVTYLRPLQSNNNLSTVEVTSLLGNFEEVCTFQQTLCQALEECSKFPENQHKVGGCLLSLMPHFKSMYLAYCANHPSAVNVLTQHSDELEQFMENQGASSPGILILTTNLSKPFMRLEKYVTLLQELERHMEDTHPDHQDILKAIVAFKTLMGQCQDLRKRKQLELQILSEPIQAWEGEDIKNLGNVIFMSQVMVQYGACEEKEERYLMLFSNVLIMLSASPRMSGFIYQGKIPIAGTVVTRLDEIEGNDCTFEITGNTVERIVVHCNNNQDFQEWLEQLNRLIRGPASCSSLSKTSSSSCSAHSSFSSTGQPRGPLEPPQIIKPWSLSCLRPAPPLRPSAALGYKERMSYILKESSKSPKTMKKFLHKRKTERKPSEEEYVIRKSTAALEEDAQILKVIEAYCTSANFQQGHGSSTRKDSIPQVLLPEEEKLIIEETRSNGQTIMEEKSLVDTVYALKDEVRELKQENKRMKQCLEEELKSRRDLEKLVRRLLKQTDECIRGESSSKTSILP
UniProt Q8TER5, whole entry, looked up: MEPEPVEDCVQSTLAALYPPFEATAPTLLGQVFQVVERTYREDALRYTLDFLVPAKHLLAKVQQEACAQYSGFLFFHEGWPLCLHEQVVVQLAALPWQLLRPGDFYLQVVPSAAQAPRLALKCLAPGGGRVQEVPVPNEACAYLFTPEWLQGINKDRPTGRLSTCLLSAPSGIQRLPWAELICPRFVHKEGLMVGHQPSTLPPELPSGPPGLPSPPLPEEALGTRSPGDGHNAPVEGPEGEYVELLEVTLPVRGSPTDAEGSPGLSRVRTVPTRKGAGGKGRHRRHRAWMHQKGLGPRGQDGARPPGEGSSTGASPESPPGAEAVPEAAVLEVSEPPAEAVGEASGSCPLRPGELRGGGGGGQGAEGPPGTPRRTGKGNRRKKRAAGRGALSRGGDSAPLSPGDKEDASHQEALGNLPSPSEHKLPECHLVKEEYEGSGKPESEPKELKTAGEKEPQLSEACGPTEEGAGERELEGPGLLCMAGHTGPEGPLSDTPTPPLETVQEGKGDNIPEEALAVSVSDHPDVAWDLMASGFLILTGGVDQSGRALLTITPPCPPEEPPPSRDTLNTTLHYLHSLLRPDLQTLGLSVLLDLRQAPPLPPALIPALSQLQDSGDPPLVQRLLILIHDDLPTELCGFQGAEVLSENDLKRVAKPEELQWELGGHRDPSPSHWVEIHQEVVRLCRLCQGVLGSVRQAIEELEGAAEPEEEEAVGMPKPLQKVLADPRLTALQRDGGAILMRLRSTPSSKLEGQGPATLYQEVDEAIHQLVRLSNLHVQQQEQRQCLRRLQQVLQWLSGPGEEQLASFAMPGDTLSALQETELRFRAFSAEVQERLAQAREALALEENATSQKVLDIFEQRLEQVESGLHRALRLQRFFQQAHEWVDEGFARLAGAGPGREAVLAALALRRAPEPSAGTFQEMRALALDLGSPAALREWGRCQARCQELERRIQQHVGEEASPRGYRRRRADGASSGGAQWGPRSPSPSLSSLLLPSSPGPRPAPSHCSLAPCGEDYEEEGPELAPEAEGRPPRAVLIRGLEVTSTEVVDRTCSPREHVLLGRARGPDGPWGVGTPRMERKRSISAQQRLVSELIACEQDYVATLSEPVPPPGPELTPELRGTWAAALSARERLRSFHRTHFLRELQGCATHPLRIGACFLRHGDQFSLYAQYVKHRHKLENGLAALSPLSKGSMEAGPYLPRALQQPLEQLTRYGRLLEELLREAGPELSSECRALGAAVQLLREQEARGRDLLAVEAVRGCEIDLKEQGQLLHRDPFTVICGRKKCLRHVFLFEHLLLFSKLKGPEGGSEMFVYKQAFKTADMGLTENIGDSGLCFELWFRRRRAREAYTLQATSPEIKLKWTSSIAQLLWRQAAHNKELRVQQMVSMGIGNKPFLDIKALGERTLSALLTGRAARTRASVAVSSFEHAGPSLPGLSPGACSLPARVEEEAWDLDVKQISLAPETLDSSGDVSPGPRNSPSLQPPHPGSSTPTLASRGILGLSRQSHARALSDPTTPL
UniProt P42331: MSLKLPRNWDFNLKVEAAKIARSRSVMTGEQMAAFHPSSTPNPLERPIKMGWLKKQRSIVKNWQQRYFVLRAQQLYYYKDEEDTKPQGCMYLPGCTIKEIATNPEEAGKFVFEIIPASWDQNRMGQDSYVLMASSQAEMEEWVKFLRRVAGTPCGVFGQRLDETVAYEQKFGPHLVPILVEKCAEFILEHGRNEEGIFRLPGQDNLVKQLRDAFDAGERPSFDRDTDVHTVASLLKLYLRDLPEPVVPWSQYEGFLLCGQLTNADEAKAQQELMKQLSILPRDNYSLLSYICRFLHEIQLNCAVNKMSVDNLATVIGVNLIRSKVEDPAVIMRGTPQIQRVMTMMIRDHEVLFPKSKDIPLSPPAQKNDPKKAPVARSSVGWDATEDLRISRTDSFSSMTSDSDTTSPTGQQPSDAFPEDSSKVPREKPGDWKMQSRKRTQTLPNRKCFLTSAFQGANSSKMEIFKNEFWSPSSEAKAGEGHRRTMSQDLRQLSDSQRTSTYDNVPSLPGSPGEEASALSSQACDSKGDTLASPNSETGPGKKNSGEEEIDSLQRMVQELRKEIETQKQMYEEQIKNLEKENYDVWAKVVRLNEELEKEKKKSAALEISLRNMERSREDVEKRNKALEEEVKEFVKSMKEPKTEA
UniProt Q92888: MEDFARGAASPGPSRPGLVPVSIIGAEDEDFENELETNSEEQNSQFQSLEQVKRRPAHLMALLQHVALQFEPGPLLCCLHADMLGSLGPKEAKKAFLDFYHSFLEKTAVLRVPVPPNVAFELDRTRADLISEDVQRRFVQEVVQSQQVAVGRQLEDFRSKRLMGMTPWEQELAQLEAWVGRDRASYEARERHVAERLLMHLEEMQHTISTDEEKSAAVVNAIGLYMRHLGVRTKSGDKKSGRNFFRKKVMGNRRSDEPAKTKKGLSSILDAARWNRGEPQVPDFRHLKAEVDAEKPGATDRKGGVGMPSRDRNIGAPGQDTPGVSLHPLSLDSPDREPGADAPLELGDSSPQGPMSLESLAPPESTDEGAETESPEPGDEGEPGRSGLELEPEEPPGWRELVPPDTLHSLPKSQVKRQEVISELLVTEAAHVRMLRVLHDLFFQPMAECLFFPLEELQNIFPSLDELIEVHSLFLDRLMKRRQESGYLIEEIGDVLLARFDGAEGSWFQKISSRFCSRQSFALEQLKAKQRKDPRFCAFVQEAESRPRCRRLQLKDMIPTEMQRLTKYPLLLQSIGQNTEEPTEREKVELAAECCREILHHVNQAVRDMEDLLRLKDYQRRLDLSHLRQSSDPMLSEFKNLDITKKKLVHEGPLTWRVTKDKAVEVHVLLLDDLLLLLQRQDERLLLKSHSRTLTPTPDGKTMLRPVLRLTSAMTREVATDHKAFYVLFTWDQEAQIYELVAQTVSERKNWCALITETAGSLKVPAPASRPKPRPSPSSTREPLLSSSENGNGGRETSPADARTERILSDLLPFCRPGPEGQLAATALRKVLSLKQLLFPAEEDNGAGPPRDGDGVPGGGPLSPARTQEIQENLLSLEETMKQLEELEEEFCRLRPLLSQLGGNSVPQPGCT
UniProt Q9UKG1: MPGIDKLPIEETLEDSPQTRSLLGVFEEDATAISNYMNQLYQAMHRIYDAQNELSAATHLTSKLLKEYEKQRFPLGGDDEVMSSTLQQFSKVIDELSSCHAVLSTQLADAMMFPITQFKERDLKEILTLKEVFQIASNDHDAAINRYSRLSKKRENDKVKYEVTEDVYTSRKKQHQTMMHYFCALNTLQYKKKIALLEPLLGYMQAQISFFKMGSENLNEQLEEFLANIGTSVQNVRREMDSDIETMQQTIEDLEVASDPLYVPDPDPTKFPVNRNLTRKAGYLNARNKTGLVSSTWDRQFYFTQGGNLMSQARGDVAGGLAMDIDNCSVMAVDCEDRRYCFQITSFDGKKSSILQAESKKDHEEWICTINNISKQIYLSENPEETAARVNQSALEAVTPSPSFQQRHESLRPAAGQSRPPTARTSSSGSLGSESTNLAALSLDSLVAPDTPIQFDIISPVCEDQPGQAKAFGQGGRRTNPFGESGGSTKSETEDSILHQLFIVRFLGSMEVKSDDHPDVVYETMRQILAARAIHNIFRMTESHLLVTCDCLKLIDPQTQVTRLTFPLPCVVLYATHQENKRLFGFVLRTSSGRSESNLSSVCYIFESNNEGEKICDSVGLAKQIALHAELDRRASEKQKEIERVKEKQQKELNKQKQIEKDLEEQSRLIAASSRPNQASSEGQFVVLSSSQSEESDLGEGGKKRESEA
UniProt P27540, whole entry, looked up: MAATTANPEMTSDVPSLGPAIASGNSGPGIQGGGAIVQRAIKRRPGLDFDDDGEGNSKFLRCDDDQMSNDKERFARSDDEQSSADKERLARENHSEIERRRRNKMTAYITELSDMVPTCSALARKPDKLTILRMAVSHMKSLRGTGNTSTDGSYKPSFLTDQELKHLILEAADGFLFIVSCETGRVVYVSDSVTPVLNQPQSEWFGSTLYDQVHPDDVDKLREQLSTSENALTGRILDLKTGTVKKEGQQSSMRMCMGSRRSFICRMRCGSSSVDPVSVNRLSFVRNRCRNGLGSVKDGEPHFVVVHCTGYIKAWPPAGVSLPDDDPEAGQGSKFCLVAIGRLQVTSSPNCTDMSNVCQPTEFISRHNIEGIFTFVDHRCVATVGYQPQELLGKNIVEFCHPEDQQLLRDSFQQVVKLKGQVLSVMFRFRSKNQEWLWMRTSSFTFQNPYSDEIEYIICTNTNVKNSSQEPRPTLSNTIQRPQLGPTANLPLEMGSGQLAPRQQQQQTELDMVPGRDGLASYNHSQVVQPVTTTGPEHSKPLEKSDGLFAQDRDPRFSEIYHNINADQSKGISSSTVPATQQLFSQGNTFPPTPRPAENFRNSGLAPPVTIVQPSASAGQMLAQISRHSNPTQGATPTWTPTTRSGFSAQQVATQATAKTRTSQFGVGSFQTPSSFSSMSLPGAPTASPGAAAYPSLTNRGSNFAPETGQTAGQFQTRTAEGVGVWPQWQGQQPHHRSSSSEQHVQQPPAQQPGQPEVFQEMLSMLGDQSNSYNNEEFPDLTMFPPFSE
UniProt Q92974: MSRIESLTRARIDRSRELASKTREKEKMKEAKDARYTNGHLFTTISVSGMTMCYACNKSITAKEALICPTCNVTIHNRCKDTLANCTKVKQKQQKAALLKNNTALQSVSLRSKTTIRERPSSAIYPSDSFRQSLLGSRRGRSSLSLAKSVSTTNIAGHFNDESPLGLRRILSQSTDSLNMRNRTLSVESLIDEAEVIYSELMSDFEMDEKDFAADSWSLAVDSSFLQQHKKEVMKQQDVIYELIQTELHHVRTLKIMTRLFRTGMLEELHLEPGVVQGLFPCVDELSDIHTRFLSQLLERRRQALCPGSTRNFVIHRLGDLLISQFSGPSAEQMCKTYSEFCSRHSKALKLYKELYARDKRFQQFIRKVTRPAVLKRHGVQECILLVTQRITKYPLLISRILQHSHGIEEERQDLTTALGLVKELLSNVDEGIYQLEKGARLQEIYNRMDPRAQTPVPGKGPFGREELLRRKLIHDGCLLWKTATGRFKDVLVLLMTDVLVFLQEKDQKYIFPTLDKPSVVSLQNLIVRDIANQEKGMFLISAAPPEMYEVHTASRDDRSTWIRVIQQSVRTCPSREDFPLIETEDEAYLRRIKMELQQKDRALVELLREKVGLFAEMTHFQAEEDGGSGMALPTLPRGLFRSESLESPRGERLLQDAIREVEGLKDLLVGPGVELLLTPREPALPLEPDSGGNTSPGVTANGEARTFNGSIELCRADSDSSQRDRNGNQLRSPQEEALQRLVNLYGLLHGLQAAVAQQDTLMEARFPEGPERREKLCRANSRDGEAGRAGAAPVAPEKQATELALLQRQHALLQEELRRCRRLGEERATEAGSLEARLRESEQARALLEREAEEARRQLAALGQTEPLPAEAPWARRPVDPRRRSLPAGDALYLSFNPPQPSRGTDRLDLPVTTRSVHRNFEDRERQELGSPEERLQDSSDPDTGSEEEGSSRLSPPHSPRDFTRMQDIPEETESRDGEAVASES
UniProt Q66PJ3: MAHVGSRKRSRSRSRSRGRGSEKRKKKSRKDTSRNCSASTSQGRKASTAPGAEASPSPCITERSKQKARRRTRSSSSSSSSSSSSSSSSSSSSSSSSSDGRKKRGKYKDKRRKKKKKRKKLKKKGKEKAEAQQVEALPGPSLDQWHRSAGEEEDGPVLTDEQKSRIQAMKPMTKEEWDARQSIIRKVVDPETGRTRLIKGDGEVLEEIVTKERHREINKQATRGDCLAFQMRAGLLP

ARHGEF6_Q15052_119_ATEDQLSERPCGR (UniProt Q15052)
probe-labelled cysteine peptide fold change (10 µM): -0.14 | probe-labelled cysteine peptide fold change (50 µM): -0.428

ARHGEF40_Q8TER5_1148_ELQGCATHPLR (UniProt Q8TER5)
probe-labelled cysteine peptide fold change (10 µM): -0.0789 | probe-labelled cysteine peptide fold change (50 µM): -0.352

ARMH3_Q5T2E6_80_DNINCLFQHCIQALGEEHPIR (UniProt Q5T2E6)
probe-labelled cysteine peptide fold change (10 µM): -0.0987 | probe-labelled cysteine peptide fold change (50 µM): 0.413

ARHGAP25_P42331_302_FLHEIQLNCAVNK (UniProt P42331)
probe-labelled cysteine peptide fold change (10 µM): 0.0597 | probe-labelled cysteine peptide fold change (50 µM): 0.0794

ARL6_Q9H0F7_22_EVHVLCLGLDNSGK (UniProt Q9H0F7)
probe-labelled cysteine peptide fold change (10 µM): -0.0801 | probe-labelled cysteine peptide fold change (50 µM): 0.188

ARHGEF1_Q92888_595_VELAAECCR (UniProt Q92888)
probe-labelled cysteine peptide fold change (10 µM): 0.119 | probe-labelled cysteine peptide fold change (50 µM): 0.0448

ARHGAP1_Q07960_91_IIVFSACR (UniProt Q07960)
probe-labelled cysteine peptide fold change (10 µM): 0.048 | probe-labelled cysteine peptide fold change (50 µM): 0.103

ARHGAP4_P98171_840_QVVGAGLQTAGESGSSPEGLLASELVHRPEPCTSPEAMGPSGHR (UniProt P98171)
probe-labelled cysteine peptide fold change (10 µM): -0.252 | probe-labelled cysteine peptide fold change (50 µM): -0.535

ARAP3_Q8WWN8_1215_KVPLAQAGCLFTGIR (UniProt Q8WWN8)
probe-labelled cysteine peptide fold change (10 µM): -0.078 | probe-labelled cysteine peptide fold change (50 µM): -0.664

ARHGEF10_O15013_477_EILQCHSLFQIALASR (UniProt O15013)
probe-labelled cysteine peptide fold change (10 µM): 0.0754 | probe-labelled cysteine peptide fold change (50 µM): 0.721

ARIH2_O95376_188_DGVGVGVSCMAQDCPLR (UniProt O95376)
probe-labelled cysteine peptide fold change (10 µM): 0.00474 | probe-labelled cysteine peptide fold change (50 µM): -0.112

ARHGAP18_Q8N392_637_CLDDDTYMK (UniProt Q8N392)
probe-labelled cysteine peptide fold change (10 µM): 0.0982 | probe-labelled cysteine peptide fold change (50 µM): -0.0344

AQR_O60306_681_NLMNTDCVVPDWLHDIILGYGDPSSAHYSK (UniProt O60306)
probe-labelled cysteine peptide fold change (10 µM): 0.197 | probe-labelled cysteine peptide fold change (50 µM): 0.142

ARID1B_Q8NFD5_1919_SRDETPLCTIAHWQDSLAK (UniProt Q8NFD5)
probe-labelled cysteine peptide fold change (10 µM): -0.0638 | probe-labelled cysteine peptide fold change (50 µM): 0.119

ARHGEF12_Q9NZN5_1128_TVWQDLICR (UniProt Q9NZN5)
probe-labelled cysteine peptide fold change (10 µM): 0.136 | probe-labelled cysteine peptide fold change (50 µM): -0.166

APPL1_Q9UKG1_570_LTFPLPCVVLYATHQENKR (UniProt Q9UKG1)
probe-labelled cysteine peptide fold change (10 µM): -0.138 | probe-labelled cysteine peptide fold change (50 µM): -0.0139

ARAP1_Q96P48_1357_LRPPTCWGFTVVHETEK (UniProt Q96P48)
probe-labelled cysteine peptide fold change (10 µM): 0.00392 | probe-labelled cysteine peptide fold change (50 µM): 0.175

ARHGAP25_P42331-2_147_VAGTPCGAVFGQR (UniProt P42331)
probe-labelled cysteine peptide fold change (10 µM): -0.0097 | probe-labelled cysteine peptide fold change (50 µM): -0.0357

ARNT_P27540_119_MTAYITELSDMVPTCSALAR (UniProt P27540)
probe-labelled cysteine peptide fold change (10 µM): -0.0639 | probe-labelled cysteine peptide fold change (50 µM): 0.32

ARHGEF40_Q8TER5_1233_EAGPELSSECR (UniProt Q8TER5)
probe-labelled cysteine peptide fold change (10 µM): -0.0103 | probe-labelled cysteine peptide fold change (50 µM): -0.622

ARMC1_Q9NVT9_40_AIVQDQGCLPGLILFMDHPNPPVVHSALLALR (UniProt Q9NVT9)
probe-labelled cysteine peptide fold change (10 µM): -0.0298 | probe-labelled cysteine peptide fold change (50 µM): 0.0978

ARHGEF1_Q92888_815_ILSDLLPFCRPGPEGQLAATALRK (UniProt Q92888)
probe-labelled cysteine peptide fold change (10 µM): -0.137 | probe-labelled cysteine peptide fold change (50 µM): -0.725

ARHGEF2_Q92974_715_TFNGSIELCR (UniProt Q92974)
probe-labelled cysteine peptide fold change (10 µM): -0.114 | probe-labelled cysteine peptide fold change (50 µM): -0.246

ARL6IP4_Q66PJ3_243_ASTAPGAEASPSPCITER (UniProt Q66PJ3)
probe-labelled cysteine peptide fold change (10 µM): -0.178 | probe-labelled cysteine peptide fold change (50 µM): 0.108

ARHGAP4_P98171_349_FDYHPHDGDEVAEICVEMELRDEILPR (UniProt P98171)
probe-labelled cysteine peptide fold change (10 µM): 0.198 | probe-labelled cysteine peptide fold change (50 µM): 0.42

ARHGEF16_Q5VV41_438_LPLLMDTLCLK (UniProt Q5VV41)
probe-labelled cysteine peptide fold change (10 µM): 0.117 | probe-labelled cysteine peptide fold change (50 µM): 0.442

ARHGAP45_Q92619_783_CVCEIER (UniProt Q92619)
probe-labelled cysteine peptide fold change (10 µM): 0.0756 | probe-labelled cysteine peptide fold change (50 µM): -0.253

ARID2_Q68CP9_538_FACQWLNAHFEVNPDCSVSR (UniProt Q68CP9)
probe-labelled cysteine peptide fold change (10 µM): 0.105 | probe-labelled cysteine peptide fold change (50 µM): 0.325

ARHGEF6_Q15052_418_TLMGQCQDLR (UniProt Q15052)
probe-labelled cysteine peptide fold change (10 µM): 0.114 | probe-labelled cysteine peptide fold change (50 µM): 0.31

ARHGAP35_Q9NRY4_924_FTSIPCSQPQHK (UniProt Q9NRY4)
probe-labelled cysteine peptide fold change (10 µM): -0.0744 | probe-labelled cysteine peptide fold change (50 µM): 0.0121

APPL1_Q9UKG1_341_YCFQITSFDGK (UniProt Q9UKG1)
probe-labelled cysteine peptide fold change (10 µM): 0.0889 | probe-labelled cysteine peptide fold change (50 µM): 0.137

ARHGEF6_Q15052_66_FCLDPQTEADCINNINDFLK (UniProt Q15052)
probe-labelled cysteine peptide fold change (10 µM): 0.158 | probe-labelled cysteine peptide fold change (50 µM): 0.0931

ARHGEF2_Q92974_306_QALCPGSTR (UniProt Q92974)
probe-labelled cysteine peptide fold change (10 µM): -0.0731 | probe-labelled cysteine peptide fold change (50 µM): -0.0082

ARHGAP30_Q7Z6I6_965_IHVAPANPCPRPGR (UniProt Q7Z6I6)
probe-labelled cysteine peptide fold change (10 µM): -0.0691 | probe-labelled cysteine peptide fold change (50 µM): -0.156

ARHGEF11_O15085_402_GVLCEAQEAAMPEIQEQIHDYR (UniProt O15085)
probe-labelled cysteine peptide fold change (10 µM): -0.242 | probe-labelled cysteine peptide fold change (50 µM): -0.0418

ARNT_P27540_336_FCLVAIGR (UniProt P27540)
probe-labelled cysteine peptide fold change (10 µM): -0.202 | probe-labelled cysteine peptide fold change (50 µM): -0.013

ARIH1_Q9Y4X5_327_KCDDDSETSNWIAANTK (UniProt Q9Y4X5)
probe-labelled cysteine peptide fold change (10 µM): -0.0676 | probe-labelled cysteine peptide fold change (50 µM): -0.448
